No constants are given. Whether binding was seen depends on the method and setting. Binding seen in cells or lysates may run through a third protein. Where a sequence is shown, tags or fusion partners need not be part of it.
Target: RII subunit of protein kinase A
Test: anti-FLAG co-immunoprecipitation from HEK293T, immunoblot for RII subunit

B1: FLAG-tagged MMG8 fragment 390-1116 (other)
chain: HETTITQQSVSDSHLAELQEKIQQTEATNKILQEKLNEMSYELKCAQESSQKQDGTIQNLKETLKSRERETEELYQVIEGQNDTMAKLREMLHQSQLGQLHSSEGTSPAQQQVALLDLQSALFCSQLEIQKLQRVVRQKERQLADAKQCVQFVEAAAHESEQQKEASWKHNQELRKALQQLQEELQNKSQQLRAWEAEKYNEIRTQEQNIQHLNHSLSHKEQLLQEFRELLQYRDNSDKTLEANEMLLEKLRQRIHDKAVALERAIDEKFSALEEKEKELRQLRLAVRERDHDLERLRDVLSSNEATMQSMESLLRAKGLEVEQLSTTCQNLQWLKEEMETKFSRWQKEQESIIQQLQTSLHDRNKEVEDLSATLLCKLGPGQSEIAEELCQRLQRKERMLQDLLSDRNKQVLEHEMEIQGLLQSVSTREQESQAAAEKLVQALMERNSELQALRQYLGGRDSLMSQAPISNQQAEVTPTGRLGKQTDQGSMQIPSRDDSTSLTAKEDVSIPRSTLGDLDTVAGLEKELSNAKEELELMAKKERESQMELSALQSMMAVQEEELQVQAADMESLTRNIQIKEDLIKDLQMQLVDPEDIPAMERLTQEVLLLREKVASVESQGQEISGNRRQQLLLMLEGLVDERSRLNEALQAERQLYSSLVKFHAHPESSERDRTLQVELEGAQVLRSRLEEVLGRSLERLNRLETLAAIGGGELESVRIHHKHAY
notes: not shown: FLAG tag
binding: no binding
